# The whole screen tested about 300,000 compounds, of which about 5,400 (1.8%) were called active. This list was built around the results that the source calls inconclusive (neither active nor inactive); the mix of calls is not that of the screen. Calls follow the shape of the full dose curve; tested in HEK293 cells. Potencies beside an inconclusive call are fits to weak or partial responses and may not hold up.
# Assay: qHTS for inhibitors of binding or entry into cells for Marburg Virus
# Settings: Marburg virus pseudotyped entry inhibition, cell reporter; activity change, negative = inhibition: at 37.8 µM (top of the series) unless noted
# % is scaled to controls: 0 for no effect and ±100 for the full control effect; potency is read from the fitted curve at half-maximal effect.
Structure (SMILES),"activity change, negative = inhibition",Potency
Cc1ccccc1NC(=O)CN1CCN(Cc2ccccc2)CC1,inactive: -3.42%,
O=c1[nH]nc(Sc2ncnc3sccc23)n1CCc1ccccc1,,"inconclusive: 25.9 µM [inhibitor, single point]"
COc1cccc(C(=O)CSc2nnc(COc3cccc4cccnc34)o2)c1,,inactive
O=C(CC(=O)Nc1ccccc1C(=O)O)NNC(=O)Cc1ccccc1,inactive: 1.41% [at 46.1 µM],
CCN(CC(=O)Nc1cccc(C(C)=O)c1)S(=O)(=O)c1ccc(OC)cc1,,"inconclusive: 0.708 µM [activator, single point]"
Cc1cccc(C)c1NC(=O)COC(=O)c1ccc(N2CCCC2)c([N+](=O)[O-])c1,,"inconclusive: 5.62 µM [activator, single point]"
O=C(CNC(=O)c1ccccc1F)NCc1cccnc1,inactive: 17.5% [at 46.1 µM],
Cc1cc(C)n(S(=O)(=O)c2ccc(C)c(C)c2C)n1,,"inconclusive: 35.5 µM [activator, single point]"
COc1ccc(-c2cc(C(=O)N3CCCc4ccccc43)no2)cc1OC,,"inconclusive: 29.1 µM [activator, single point]"
O=C1c2ccccc2NC(c2ccc(Cl)cc2Cl)N1O (centres undefined),inactive: -22.1%,
Cc1ccc(S(=O)(=O)c2nnn3c2nc(N2CCOCC2)c2ccccc23)cc1C,inactive: 5.06% [at 46.1 µM],
Cc1ccc(N2CCC(N3CCN(C4CCCCC4)C(CCO)C3)CC2)cc1 (centres undefined),,"inconclusive: 2.82 µM [activator, partial curve, poor fit]"
C=C1CC(COc2ccc3c(C)c(Cl)c(=O)oc3c2)(c2ccccc2)OC1=O (centres undefined),,active: 7.08 µM
Cc1cccc(NC(=O)c2cccc(OC(=S)N3CCOCC3)c2)c1C,inactive: 9.05%,
CCCCCCc1cc2cc(S(=O)(=O)c3ccc(F)c(Cl)c3)c(=O)oc2cc1O,,"inconclusive: 10 µM [inhibitor, partial curve, poor fit]"
Cc1cccc(S(=O)(=O)c2c(N)n(/N=C/c3ccco3)c3nc4ccccc4nc23)c1,,"inconclusive: 25.9 µM [inhibitor, partial curve, poor fit]"
COc1ccc(N(C(C)C(=O)N/N=C/c2ccc(OCC(C)C)cc2)S(C)(=O)=O)cc1 (centres undefined),,"inconclusive: 35.5 µM [inhibitor, single point]"
CNC(=S)N(CCc1c(C)[nH]c2ccccc12)Cc1ccco1,,"inconclusive: 3.98 µM [inhibitor, partial curve]"
CCC12CN3CC(C)(CN(C1)C3c1c[nH]c3ccc(OC)cc13)C2=O (centres undefined),inactive: -12.4% [at 46.1 µM],
Cc1nn(C)cc1C1C2=C(CC(C)(C)CC2=O)N(c2ccccc2)C2=C1C(=O)CC(C)(C)C2,inactive: -3.1%,
CCOC(=O)C1CCCN(S(=O)(=O)c2nc3nc(C)cc(C)n3n2)C1 (centres undefined),inactive: 19.4%,
O=C(CNC(=O)c1ccc(F)cc1)N/N=C/c1cn[nH]c1-c1ccccc1,,"inconclusive: 17.8 µM [inhibitor, single point]"

# Whole records from above.
# `CCN(CC(=O)Nc1cccc(C(C)=O)c1)S(=O)(=O)c1ccc(OC)cc1` is listed as Potency: inconclusive: 0.708 µM [activator, single point]
# `COc1cccc(C(=O)CSc2nnc(COc3cccc4cccnc34)o2)c1` is listed as Potency: inactive
# `O=C(CNC(=O)c1ccccc1F)NCc1cccnc1` is listed as activity change, negative = inhibition: inactive: 17.5% [at 46.1 µM]

# Additional records:

Structure (SMILES),"activity change, negative = inhibition",Potency
c1ccc(-c2ccccc2OCCOCCN2CCCCC2)cc1,,"inconclusive: 22.4 µM [inhibitor, single point]"
Cc1cccc2c(=O)c(C(=O)NCCCN3CCOCC3)c[nH]c12,,"inconclusive: 0.0651 µM [inhibitor, full curve, poor fit]"
O=C(OC1CCCCC1=O)c1cccc(S(=O)(=O)N2CCCCC2)c1 (centres undefined),,"inconclusive: 0.562 µM [activator, full curve, poor fit]"
O=C(CN1CCN(c2cccc(Cl)c2)CC1)Nc1ccc(S(=O)(=O)N2CCOCC2)cc1,,"inconclusive: 35.5 µM [inhibitor, single point]"
C=CCSC(=C(C#N)C#N)c1cc2c([nH]1)CCCC2,,"inconclusive: 35.5 µM [inhibitor, single point]"
CCN1C(=NCCc2c[nH]c3ccccc23)NC(c2ccccc2)C(C(=O)OC)=C1C (centres undefined),,"inconclusive: 0.0473 µM [inhibitor, partial curve, poor fit]"
CC(C)(C)N1CC(c2nc3ccccc3n2Cc2ccc(Cl)cc2)CC1=O (centres undefined),,"inconclusive: 32.6 µM [inhibitor, single point]"
Cc1cc(C)c(S(=O)(=O)NCc2csc(-c3ccccc3)n2)c(C)c1,,"inconclusive: 20 µM [inhibitor, single point]"
COc1ccc(C(=O)NCc2nnc(SCCOc3ccccc3)n2C)cc1,,"inconclusive: 0.224 µM [inhibitor, full curve, poor fit]"
CCOC(=O)c1ccc(N2C(=O)CC(NNC(=O)c3ccc(Br)s3)C2=O)cc1 (centres undefined),,"inconclusive: 0.891 µM [activator, single point]"
N#C/C(=C\c1ccc(OC(=O)c2cccs2)cc1)c1nc2ccccc2[nH]1,inactive: -25.6%,
O=C(CN1c2ccccc2Sc2ccccc21)NNC(=S)Nc1ccc(Cl)cc1,inactive: 1.45%,
COc1ccc(COC(=O)c2ccc(Cl)c(S(=O)(=O)N3CC(C)OC(C)C3)c2)cc1 (centres undefined),inactive: -17.4%,
CCOC(=O)C(=Cc1cn(C)c2ccc(S(=O)(=O)N(C)C)cc12)C(=O)OCC,inactive: -21.7% [at 46.1 µM],
Cc1ccc(S(=O)(=O)NC(C(=O)O)c2ccccc2)cc1 (centres undefined),,"inconclusive: 0.501 µM [inhibitor, full curve, poor fit]"
CN1/C(=C\C(=S)Nc2ccccc2)C(C)(C)c2ccccc21,,"inconclusive: 35.5 µM [inhibitor, partial curve, poor fit]"
COc1ccc2c(c1)O[C@H](c1ccc3c(c1)OCO3)[C@@H](OC(=O)NCCOc1ccccc1)C2=O,,inactive
COc1cccc(-c2cc(C(F)(F)F)n3nc(C)c(-c4ccccc4)c3n2)c1,inactive: 4.43% [at 46.1 µM],
O=C(NC1CCCC1)C(c1ccc(F)cc1)N(C(=O)c1csnn1)c1ccccc1F (centres undefined),,"inconclusive: 35.5 µM [inhibitor, single point]"
CCCc1nc2c(=O)n(C)c(=O)[nH]c2n1CCC,,"inconclusive: 5.62 µM [activator, partial curve, poor fit]"
Oc1ccc(-c2csc(Nc3ccccn3)n2)cc1,,"inconclusive: 3.16 µM [activator, partial curve, poor fit]"
Cc1ccccc1C(=O)NC1(C(F)(F)F)N=C(c2ccccc2)N(Cc2ccccc2)C1=O (centres undefined),,"inconclusive: 7.94 µM [inhibitor, partial curve, poor fit]"
